The experiment deals with TNF receptor-I (human (endogenous in peripheral blood T cells)). Description: co-IP; 250 ug lysate of human T cells treated with CCF52 gangliosides (15 ug/ml; 6, 12, 24 and 48 hrs) incubated with mouse monoclonal anti-TNFRI antibody (6 ug), protein A beads, washed with RIPA buffer; Western blot for FADD, TRADD and TNFRI. (In general: In western blotting, separated proteins are transferred to a membrane and probed.)

These are yes or no findings as the source states them, for the method shown. Binding seen in cells or lysates may run through a third protein. A result given as binding can be weak or reduced; the word gives no strength.

B1: TNF receptor associated death domain (TRADD) (protein, UniProt Q15628 1-312)
chain: MAAGQNGHEEWVGSAYLFVESSLDKVVLSDAYAHPQQKVAVYRALQAALAESGGSPDVLQMLKIHRSDPQLIVQLRFCGRQPCGRFLRAYREGALRAALQRSLAAALAQHSVPLQLELRAGAERLDALLADEERCLSCILAQQPDRLRDEELAELEDALRNLKCGSGARGGDGEVASAPLQPPVPSLSEVKPPPPPPPAQTFLFQGQPVVNRPLSLKDQQTFARSVGLKWRKVGRSLQRGCRALRDPALDSLAYEYEREGLYEQAFQLLRRFVQAEGRRATLQRLVEALEENELTSLAEDLLGLTDPNGGLA
With B1, the binding entry is reported as “binds”.

These data come from PMC4520498.
